Laboratory results taken from US7285393B2, “Assay for modulation of γ secretase” (Merck Sharp & Dohme Limited, priority 2002, dated 2007).
“Also recorded” adds a separate entry of the source. At least one compound was matched to its structure with a doubt left.

Biological target: T1, γ-secretase complex (PS1 heterodimer and nicastrin) (Homo sapiens, UniProt P49768)
T1 construct: mainly occurs as a heterodimer of its N- and C-terminal fragment; endogenous in cells; host or cells: human SH-SY5Y neuroblastoma cell membranes, solubilised in 1% CHAPSO and diluted to 0.5%
Test: Inhibitor affinity precipitation of CHAPSO-solubilized γ-secretase with biotinylated Merck C, Western blot
Format: binding
Conditions: competitor at 100-fold excess (10 μM), Merck C 0.1 μM
Description: Western blot analyses—Equal amounts of protein were separated by SDS-polyacrylamide gel electrophoresis and transferred to nitrocellulose membranes. Probing of the membranes was carried out with various antibodies, as indicated in the figures, using the enhanced-chemiluminescence system (ECL, Amersham). Quantitation of bands using a computerized image analysis system (MCID, Imaging Research Inc.) was performed as described previously (Beher et al., 1999).
CHAPSO-solubilization of active γ-secretase and inhibitor affinity precipitations—SH-SY5Y membranes stored in PBS, 5% glycerol were collected by centrifugation for 30 min at 180,000 g. Membrane proteins were solubilized in 1% (w/v) CHAPSO, 50 mM MES-NaOH, pH 6.0, 0.15 M NaCl, 5 mM MgCl2, 1×EDTA-free protease inhibitor mixture (Roche Molecular Biochemicals). Insoluble debris was removed by centrifugation at 180,000 g for 30 min and the resulting supernatant (solubilized γ-secretase) adjusted with the same buffer without CHAPSO to give a final detergent concentration of 0.5% CHAPSO (w/v). Endogenous biotinylated proteins were removed by adding streptavidin-coupled magnetic beads and centrifugation for 2 min at 20,000 g after an incubation for 30 min at 4° C. […]

CC(C)CC(NC(=O)C(Cc1ccccc1)CC(O)C(Cc1ccccc1)NC(=O)OC(C)(C)C)C(=O)NC(Cc1ccccc1)C(N)=O (stereo not shown) [Merck A]
Effect on precipitation of PS1 heterodimer (PS1-NTF, PS1-CTF) and nicastrin by Merck C: virtually undetectable; also recorded: abolished
